Assay results published in publication PMC4294327.
These are yes or no findings as the source states them, for the method shown. Binding seen in cells or lysates may run through a third protein. Some entries that bind do so weakly or less than the wild type.

Experiments:
[1] = biological target: Cyclin B1 (human (endogenous in K562)) (UniProt P14635); experiment: condition: only in the nuclear fraction of G2/M cells; co-IP; nuclear fraction of K562 cells synchronized at G2/M; Cyclin B1 immunoprecipitated, PKC⍺ detected by Western blotting
[2] = biological target: Cyclin B1 (human (endogenous in K562)) (UniProt P14635); experiment: co-IP; cytoplasmic fraction of K562 cells synchronized at G2/M; Cyclin B1 immunoprecipitated, PKC⍺ detected by Western blotting
[3] = biological target: Cyclin B1 (human (endogenous in K562)) (UniProt P14635); experiment: co-IP; endogenous proteins from total K562 lysates (mPER lysis buffer, 500 μg protein, antibody overnight at 4°C, Protein A/G PLUS-Agarose); cells synchronized at G2/M with Nocodazole, also G1/S cycling cells; non-specific IgG as negative control

For “Protein Kinase C ⍺ (PKC⍺) (from UniProt P17252 1-672) (enzyme)”, the binding [1] was “no binding”, the binding [2] was “binds” and the binding [3] was “binds”.
